From ChEMBL document CHEMBL3988442, “University of Dundee, Small-Polar-MMV Screening Library” (2021).

The chains behind the UniProt entries cited, without tags or fusion partners. Residues count along the entry.
UniProt P9WNZ1, whole entry: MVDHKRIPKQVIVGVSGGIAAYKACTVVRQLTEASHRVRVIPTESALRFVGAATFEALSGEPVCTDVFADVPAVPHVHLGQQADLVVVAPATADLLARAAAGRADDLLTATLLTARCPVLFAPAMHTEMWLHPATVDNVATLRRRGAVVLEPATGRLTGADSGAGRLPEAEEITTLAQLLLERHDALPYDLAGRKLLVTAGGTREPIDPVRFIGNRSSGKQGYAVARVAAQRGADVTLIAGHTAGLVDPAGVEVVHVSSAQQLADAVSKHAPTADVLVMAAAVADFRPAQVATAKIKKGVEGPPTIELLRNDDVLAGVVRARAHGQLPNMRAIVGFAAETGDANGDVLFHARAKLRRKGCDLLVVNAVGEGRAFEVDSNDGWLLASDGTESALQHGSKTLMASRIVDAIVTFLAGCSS
UniProt Q8IDJ8, 1-583: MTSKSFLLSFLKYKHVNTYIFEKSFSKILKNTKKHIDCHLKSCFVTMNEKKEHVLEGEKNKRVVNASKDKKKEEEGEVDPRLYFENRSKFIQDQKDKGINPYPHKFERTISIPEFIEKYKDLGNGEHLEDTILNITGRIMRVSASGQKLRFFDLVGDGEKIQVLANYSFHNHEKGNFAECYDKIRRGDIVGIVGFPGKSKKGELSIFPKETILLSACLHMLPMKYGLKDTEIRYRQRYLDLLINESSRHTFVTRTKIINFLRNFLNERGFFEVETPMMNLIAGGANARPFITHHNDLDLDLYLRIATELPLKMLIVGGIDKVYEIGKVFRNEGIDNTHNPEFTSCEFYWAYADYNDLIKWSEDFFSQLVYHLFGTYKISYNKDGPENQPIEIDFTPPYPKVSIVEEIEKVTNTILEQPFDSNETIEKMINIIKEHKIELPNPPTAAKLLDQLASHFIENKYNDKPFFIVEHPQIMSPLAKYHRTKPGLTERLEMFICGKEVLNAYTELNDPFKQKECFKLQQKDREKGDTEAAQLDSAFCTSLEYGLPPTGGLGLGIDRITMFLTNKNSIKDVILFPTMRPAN
UniProt P9WFT3, whole entry: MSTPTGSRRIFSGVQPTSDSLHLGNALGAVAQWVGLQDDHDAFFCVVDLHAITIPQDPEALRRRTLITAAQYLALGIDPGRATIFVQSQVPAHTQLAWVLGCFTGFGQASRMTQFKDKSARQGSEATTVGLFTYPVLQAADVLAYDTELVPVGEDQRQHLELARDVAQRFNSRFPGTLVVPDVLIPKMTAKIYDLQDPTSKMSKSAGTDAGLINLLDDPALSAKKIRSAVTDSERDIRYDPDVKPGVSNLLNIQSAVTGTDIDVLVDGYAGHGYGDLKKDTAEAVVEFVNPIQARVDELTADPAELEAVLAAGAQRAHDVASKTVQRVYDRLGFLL
UniProt I6X8D2, whole entry: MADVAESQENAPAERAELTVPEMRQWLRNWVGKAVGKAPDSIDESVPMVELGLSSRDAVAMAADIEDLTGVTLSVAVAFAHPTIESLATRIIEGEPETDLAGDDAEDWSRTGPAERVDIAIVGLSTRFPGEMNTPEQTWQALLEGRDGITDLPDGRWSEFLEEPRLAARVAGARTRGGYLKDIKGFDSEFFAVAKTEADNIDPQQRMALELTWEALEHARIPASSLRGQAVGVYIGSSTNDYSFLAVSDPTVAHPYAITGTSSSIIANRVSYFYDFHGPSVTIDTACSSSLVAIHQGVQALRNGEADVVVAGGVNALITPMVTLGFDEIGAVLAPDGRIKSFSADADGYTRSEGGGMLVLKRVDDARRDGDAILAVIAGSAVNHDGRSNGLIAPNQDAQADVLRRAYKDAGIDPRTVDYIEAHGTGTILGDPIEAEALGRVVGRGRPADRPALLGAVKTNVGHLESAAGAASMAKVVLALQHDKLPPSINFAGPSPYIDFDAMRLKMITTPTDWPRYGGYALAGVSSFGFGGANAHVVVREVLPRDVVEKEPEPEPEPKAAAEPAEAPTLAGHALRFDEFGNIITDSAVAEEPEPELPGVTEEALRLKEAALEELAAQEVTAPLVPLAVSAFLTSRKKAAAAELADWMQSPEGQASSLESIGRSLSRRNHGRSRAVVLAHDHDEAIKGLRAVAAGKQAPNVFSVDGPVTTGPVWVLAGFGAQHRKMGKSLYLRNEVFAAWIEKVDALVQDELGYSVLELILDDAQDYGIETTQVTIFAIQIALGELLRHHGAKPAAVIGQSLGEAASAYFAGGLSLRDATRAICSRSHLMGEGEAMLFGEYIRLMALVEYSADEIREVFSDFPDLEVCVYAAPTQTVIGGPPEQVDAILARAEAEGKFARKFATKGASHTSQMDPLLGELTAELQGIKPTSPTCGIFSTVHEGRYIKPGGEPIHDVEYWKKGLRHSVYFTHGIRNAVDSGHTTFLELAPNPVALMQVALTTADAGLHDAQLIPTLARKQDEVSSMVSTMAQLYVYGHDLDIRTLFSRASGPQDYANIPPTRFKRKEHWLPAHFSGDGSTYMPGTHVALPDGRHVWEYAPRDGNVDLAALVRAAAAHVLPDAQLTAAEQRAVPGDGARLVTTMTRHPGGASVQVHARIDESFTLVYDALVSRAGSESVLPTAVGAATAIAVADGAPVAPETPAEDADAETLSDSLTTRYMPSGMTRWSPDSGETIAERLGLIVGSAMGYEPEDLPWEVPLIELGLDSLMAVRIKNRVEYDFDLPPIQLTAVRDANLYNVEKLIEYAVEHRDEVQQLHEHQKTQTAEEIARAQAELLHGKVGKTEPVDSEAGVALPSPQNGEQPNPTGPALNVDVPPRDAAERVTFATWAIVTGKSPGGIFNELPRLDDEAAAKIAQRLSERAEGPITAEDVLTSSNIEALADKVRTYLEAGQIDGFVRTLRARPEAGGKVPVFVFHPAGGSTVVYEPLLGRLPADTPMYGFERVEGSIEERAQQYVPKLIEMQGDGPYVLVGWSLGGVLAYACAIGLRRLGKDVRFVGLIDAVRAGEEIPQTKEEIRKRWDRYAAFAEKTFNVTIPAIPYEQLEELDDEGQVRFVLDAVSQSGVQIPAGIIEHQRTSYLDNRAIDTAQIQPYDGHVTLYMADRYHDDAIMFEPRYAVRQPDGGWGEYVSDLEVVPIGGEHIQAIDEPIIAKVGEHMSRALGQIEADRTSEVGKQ

A: 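Enzyme assay of CoaBC with a phosphate dye (Biomol Green) read at 650 nm. Target: Coenzyme A biosynthesis protein CoaBC, Mycobacterium tuberculosis (UniProt P9WNZ1). Concentration: 30 µM. Direction is inferred from only a few compounds that gave an IC50; most scored high, so higher reads as stronger inhibition. Most strong results did not repeat in a second test. Size under these conditions: about 67,000 compounds, about 40 of them at 50% or above in at least one test.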
B: 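Enzyme assay of the cytosolic lysyl-tRNA synthetase in 384-well plates, read by luminescence. Target: Lysine-tRNA ligase, Plasmodium falciparum 3D7 (UniProt Q8IDJ8). Tested at 30 µM. Direction is inferred from only a few compounds that gave an IC50; most scored high, so higher reads as stronger inhibition. About 69,000 compounds were tested under these conditions; 0.071% (about 49) showed 50% or more at least once.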
C: 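Assay of Toxoplasma gondii numbers, read through their beta-galactosidase reporter with a colour substrate. Concentration: 10 µM. Higher reads as fewer parasites (inferred from which compounds were picked for retests). About 67,000 compounds were tested under these conditions; 0.38% (about 260) showed 50% or more at least once.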
D: 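Tryptophan-tRNA ligase, Mycobacterium tuberculosis (UniProt P9WFT3). Enzyme assay of tryptophanyl-tRNA synthetase; the read-out is not stated. Concentration: 10 µM. Higher most likely means stronger inhibition; the record gives no direction and few retests gave an IC50. Of about 65,000 compounds tested this way, about 64 (0.098%) reached 50% or more in at least one test.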
E: 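Enzyme assay of the thioesterase domain of polyketide synthase 13; the read-out is not stated. Target: Polyketide synthase Pks13, Mycobacterium tuberculosis (UniProt I6X8D2). Compounds at 30 µM. Higher reads as stronger inhibition (inferred from which compounds were picked for retests). Size under these conditions: about 67,000 compounds, about 300 of them at 50% or above in at least one test.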

Values are the deposited “Percent Effect”, in %. How 0% and 100% were set is not recorded. Most values in the screen are low, and negative values occur. The compounds are a random part of those screened. A dash means the value is not listed here; it may have been measured.

compound,A,B,C,D,E
Cc1cc(CN2CCC(CNS(=O)(=O)c3c(C)noc3C)CC2)c(C)o1,-1.459%,2.048%,-3.564%,1.083%,-25.07%
Cc1cc(C)nc(C2CCCNC2)n1.Cl.Cl (stereo not shown),-,-,12.79%,-,-
CCN(Cc1cccc(Cl)c1)Cc1ncc(C(C)(C)C)o1,0.2457%,-2.352%,14.49%,-2.465%,9.681%
CNS(=O)(=O)c1cccc(CNC(=O)NCC2CCOC2)c1 (stereo not shown),8.855%,4.302%,-0.1158%,-1.058%,-8.831%
CC(C)c1nnc(CN2CCN(CC(O)c3ccccc3)CC2)o1 (stereo not shown),2.045%,0.9279%,-6.25%,-4.153%,-3.364%
O=C(CCCOc1ccccc1F)Nc1cc[nH]n1,4.132%,6.336%,0.814%,3.983%,-1.132%
CSCc1cc(F)ccc1CNC(=O)N1CCC(CO)CC1,-2.254%,0.7252%,-0.7491%,-5.776%,-10.57%
O=C(N[C@@H]1CN[C@@H]2CCCO[C@@H]21)c1cscn1,0.1233%,4.71%,-,-1.952%,-4.065%
CCOc1ccc(Oc2cc(CN)ccn2)cc1,8.156%,0.6989%,3.745%,0.000014%,22.92%
CCc1nnc(NC(=O)Cc2c(C)nc(C)[nH]c2=O)s1,7.417%,-2.615%,-9.317%,14.66%,-27.36%
c1cncc(CO[C@H]2CN(Cc3ccco3)[C@@H]3COC[C@H]23)c1,0.4938%,4.708%,-,-,-6.817%
Cc1ccc(N2CCCC(N(C)Cc3nc(C)c(C)o3)C2)nn1 (stereo not shown),-3.813%,3.283%,-,-3.052%,1.352%
O=C(NCCOc1ccccc1)NCC(O)c1cccs1 (stereo not shown),1.022%,0.6866%,1.555%,0%,-21.65%
CN(Cc1cn(-c2ccccc2)nn1)C1CCCN(c2cccnn2)C1 (stereo not shown),1.979%,2.421%,1.952%,-3.672%,-1.798%
O=C(NCC(Cc1cccc(F)c1)N1CCCC1=O)C1CCCC1 (stereo not shown),1.272%,1.125%,-17.11%,2.157%,-0.1105%
CCN(CC)S(=O)(=O)N1CCCC(c2cccc(C(=O)O)c2)C1 (stereo not shown),9.168%,-2.29%,-0.2308%,-1.006%,-13.37%
Cc1occc1C(=O)N1CCCN(Cc2nccn2C(C)C)CC1,5%,-2.671%,-9.546%,-24.2%,-40.98%
Cc1cccc(C(=O)N2CCCCC2c2[nH]ncc2S(C)(=O)=O)c1 (stereo not shown),0.9709%,1.678%,-10.26%,-,-5.466%
Cc1cccc(CN2CC[C@@H]3[C@@H]2CCN3C(=O)c2ccoc2C)n1,6.015%,1.586%,-,-3.873%,11.3%
COc1ccc(S(=O)(=O)N2CCN(C)c3ncccc3C2)cc1,1.114%,4.322%,-,-,-
CCn1cc2c(n1)C(COC)CN(Cc1ccccn1)C2 (stereo not shown),-6.049%,-4.821%,9.293%,-1.822%,-2.087%
C[C@@H]1CN(Cc2ccc(C(F)(F)F)cc2F)CC[C@]1(C)O,-4.95%,-2.303%,-14.58%,-2.835%,-13.91%
Cc1ccc(OCCCC(=O)Nc2nonc2C)cc1C,-19.27%,0.7635%,1.59%,-5.583%,-12.18%
CNc1cc(N2CCCC2CNCc2csc(C)n2)ncn1 (stereo not shown),7.928%,1.107%,-1.098%,1.248%,-28.42%
Fc1ccccc1CN1CCCN(c2ccc3cc[nH]c3n2)CC1,-4.839%,3.988%,4.005%,-7.173%,-22.13%
CC(C)c1ncc(S(C)(=O)=O)c(C2CCCNC2)n1 (stereo not shown),4.386%,-0.404%,-5.821%,7.435%,-12.26%
CCc1ccsc1C(=O)N1CCCN(Cc2cnn(CC)c2)CC1,1.837%,2.999%,-4.657%,2.522%,-21.47%
Cc1ccn(CCNc2ncnc3c2CCN(Cc2ncc[nH]2)CC3)n1,1.79%,7.821%,7.668%,-0.315%,-17.11%
CCOCCC(=O)Nc1cccc(Cl)c1C(N)=O,10.14%,10.01%,-16.2%,-2.055%,-16.63%
FC(F)c1nnc2ccc(N3CCC4(CCCCC4)C3)nn12,4.39%,8.281%,0.06313%,3.116%,-30.71%
O=C(CC1CCCC1)N1C[C@H](OCc2ccncc2)[C@H]2OCCC[C@H]21,6.767%,2.724%,-,4.149%,-0.1062%
CN(C)C(C(=O)N1CC(c2ccccn2)C1)c1ccc2c(c1)OCO2 (stereo not shown),3.306%,1.165%,8.698%,-2.418%,-23.73%
CN(Cc1cc(Cl)ccc1Cl)Cc1ncnn1C,-0.4073%,5.417%,-5.582%,-0.4955%,-1.336%
CC(C)CN(CC(O)c1ccc(F)cc1)C(=O)c1cnsn1 (stereo not shown),-0.4854%,3.143%,-5.894%,-4.235%,-32.16%
CN(C)CC1CN(Cc2cccc(C#N)c2)Cc2nccn2C1.O=C(O)C(F)(F)F.O=C(O)C(F)(F)F (stereo not shown),-,-,-0.09091%,-,-
COC(=O)CCNC(=O)c1ccc(NC(=O)N(C)CC(C)C)cc1,16.27%,-8.014%,6.934%,11.62%,-3.856%
CCC(C)N(Cc1cccnc1)Cc1cc2c(cc1OC)OCO2 (stereo not shown),-2.811%,2.389%,1.84%,1.547%,-13.32%
COCC(NC(=O)NCc1cccc(Cl)c1)c1ccco1 (stereo not shown),1.739%,1.006%,0.06242%,-0.867%,-45.1%
[H][C@@]12OCCN(S(=O)(=O)CC)[C@@]1([H])CC[C@H]2OCC1CCCC1,-,-,-2.137%,-,-
CN(C)C(C(=O)N1CCN(CCn2cccc2)CC1)c1ccc(F)cc1 (stereo not shown),-5.283%,3.894%,-0.3895%,1.724%,-14.59%
Cc1cnn(CCNCCCOc2ccc3c(c2)OCO3)c1,-6.21%,3.733%,-0.2564%,0.2244%,-40%
CNC(=O)Cc1nc(CNc2ccc(SC)c(F)c2)cs1,4.156%,-1.664%,2.957%,-1.788%,3.9%
COc1ccc(C2SCC(=O)N2c2ncc(C)s2)cc1 (stereo not shown),7.606%,3.796%,-30.15%,0.8972%,21.35%
O=C(O)C(F)(F)F.O=c1cccnn1CC1CN(Cc2ccsc2)Cc2nccn2C1 (stereo not shown),-,-,-9.787%,-,-
CS(=O)(=O)N1CCCC12CCCN(C(=O)c1cc(F)cc(F)c1)C2 (stereo not shown),7.477%,2.066%,9.063%,1.614%,-20.78%
COc1c(CNC(c2nccn2C)C(C)C)c(C)nn1C (stereo not shown),-1.862%,0.3274%,-19.2%,-3.931%,-6.745%
Cc1nc2ccc(Cl)cn2c1CN1CCN(S(=O)(=O)N2CCCC2)CC1,-3.942%,-1.608%,-3.53%,-4.147%,4.048%
Cc1ccc(C(=O)N2CCC3(CCN3c3ncccn3)C2)cn1.O=C(O)C(F)(F)F (stereo not shown),-,-,-7.455%,-,-
Cc1ccc2c(c1)C(=O)NCC1(CCN(C(=O)c3sccc3C)CC1)O2,0.8674%,2.609%,-12.61%,-,-8.329%
Cc1cnc(N2CCC3(CC2)CCN(c2cncnc2)C3=O)nc1,-,12.17%,-5.987%,-2.697%,3.449%
COc1cccc(-c2cc(NCc3nccn3C)n(C)n2)c1,4%,3.724%,8.06%,-3.232%,-29.26%
CCOc1ncccc1CNC(=O)Nc1ccc(OC)c(OC)c1,5.974%,1.342%,0.1745%,-0.145%,-8.395%
c1c(CN2CCCC2)nc2n1CCNC2,-3.74%,-2.591%,-,1.65%,25.91%
Cc1ccc(S(=O)(=O)Nc2ccc(C)c(C(=O)O)c2)s1,1.844%,7.018%,-14.73%,0%,-8.498%
CCC(C)(COc1ncccc1Cl)NCC(=O)Nc1ccc(Br)cn1 (stereo not shown),8.481%,3.283%,-9.071%,5.167%,7.099%
CC(=O)N1CCCc2cc(NC(=O)NCCc3cnn(C)c3)ccc21,7.066%,1.838%,-7.949%,-6.657%,-22.61%
Cc1nc(C2CCCN2C(=O)CCOCc2ccccc2)no1 (stereo not shown),5.093%,-1.419%,11.24%,-3.455%,-8.428%
CN(C)c1nc(O)cc(C2CCN(C(=O)Cc3ccccn3)C2)n1 (stereo not shown),-0.4751%,3.865%,-,-6.454%,6.74%
CN(C)c1ccc(C(=O)N2CCN(c3cnccn3)CC2)cn1,6.842%,0.2343%,20.34%,-0.8021%,8.376%
N#Cc1cccc(CN2CC3(CCCCN3c3cncnc3)CC2=O)c1.O=C(O)C(F)(F)F (stereo not shown),-,-,-7.181%,-,-
COCCN(C)C(C)c1cccc(S(N)(=O)=O)c1 (stereo not shown),-11.8%,0.7637%,-4.908%,1.76%,-23.73%

For reference, 3 entries once more:

compound	A	B	C	D	E
Cc1nc(C2CCCN2C(=O)CCOCc2ccccc2)no1 (stereo not shown)	5.093%	-1.419%	11.24%	-3.455%	-8.428%
Cc1nc2ccc(Cl)cn2c1CN1CCN(S(=O)(=O)N2CCCC2)CC1	-3.942%	-1.608%	-3.53%	-4.147%	4.048%
Cc1ccc2c(c1)C(=O)NCC1(CCN(C(=O)c3sccc3C)CC1)O2	0.8674%	2.609%	-12.61%	-	-8.329%